# From the supplement of paper PMC8728848
# This is one part of the list.
# Experiments:
# Test in all cases: glycan array binding signal (z-score within array); higher = stronger binding
# Details in all cases: glycan notation: IUPAC condensed, linker removed
# [1] = target: Man(a1-3)[Man(a1-6)]Man(a1-6)[Man(a1-2)Man(a1-3)]Man(b1-4)GlcNAc(b1-4)GlcNAc
# Outline: (§1)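 The binding signal is a Z-score computed within each array and averaged over linkers. Arrays of the same protein sequence at different concentrations or buffers were also averaged together. Data originate from 3228 arrays in the Consortium for Functional Glycomics database, kept only where the protein sequence was available.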
# [2] = target: Man(a1-3)[Man(a1-6)]Man(a1-6)[Man(a1-3)]Man
# Outline: as §1
# [3] = target: Man(a1-3)[Man(a1-6)]Man(a1-6)[Man(a1-3)]Man(b1-4)GlcNAc(b1-4)GlcNAc
# Outline: as §1
# [4] = target: Man(a1-3)[Man(a1-6)]Man(b1-4)GlcNAc(b1-4)GlcNAc
# Outline: as §1
# [5] = target: Man(a1-3)[Man(a1-6)]Man(b1-4)GlcNAc(b1-4)[Fuc(a1-6)]GlcNAc
# Outline: as §1
# Man(a1-6)Man = target: Man(a1-6)Man
# Outline: as §1
# Man(b1-4)GlcNAc = target: Man(b1-4)GlcNAc
# Outline: as §1
# MurNAc(b1-4)GlcNAc = target: MurNAc(b1-4)GlcNAc
# Outline: as §1
# Neu5Ac(a2-3)Gal = target: Neu5Ac(a2-3)Gal
# Outline: as §1
# [6] = target: Neu5Ac(a2-3)Gal(b1-3)GalNAc
# Outline: as §1
# [7] = target: Neu5Ac(a2-3)Gal(b1-3)GalNAc(b1-3)Gal(a1-4)Gal(b1-4)Glc
# Outline: as §1
# [8] = target: Neu5Ac(a2-3)Gal(b1-3)GalNAc(b1-4)Gal(b1-4)Glc
# Outline: as §1
# [9] = target: Neu5Ac(a2-3)Gal(b1-3)GalNAc(b1-4)[Neu5Ac(a2-3)]Gal(b1-4)Glc
# Outline: as §1
# [10] = target: Neu5Ac(a2-3)Gal(b1-3)GalNAc(b1-4)[Neu5Ac(a2-8)Neu5Ac(a2-3)]Gal(b1-4)Glc
# Outline: as §1
# [11] = target: Neu5Ac(a2-3)Gal(b1-3)GalNAc6S
# Outline: as §1
# [12] = target: Neu5Ac(a2-3)Gal(b1-3)GlcNAc
# Outline: as §1
# [13] = target: Neu5Ac(a2-3)Gal(b1-3)GlcNAc(b1-2)Man
# Outline: as §1
# [14] = target: Neu5Ac(a2-3)Gal(b1-3)GlcNAc(b1-2)Man(a1-3)[GlcNAc(b1-4)][Neu5Ac(a2-3)Gal(b1-3)GlcNAc(b1-2)Man(a1-6)]Man(b1-4)GlcNAc(b1-4)GlcNAc
# Outline: as §1
# [15] = target: Neu5Ac(a2-3)Gal(b1-3)GlcNAc(b1-2)Man(a1-3)[Neu5Ac(a2-3)Gal(b1-3)GlcNAc(b1-2)Man(a1-6)]Man(b1-4)GlcNAc(b1-4)GlcNAc
# Outline: as §1
# [16] = target: Neu5Ac(a2-3)Gal(b1-3)GlcNAc(b1-2)[Neu5Ac(a2-3)Gal(b1-3)GlcNAc(b1-4)]Man(a1-6)[Neu5Ac(a2-3)Gal(b1-3)GlcNAc(b1-2)Man(a1-3)]Man(b1-4)GlcNAc(b1-4)GlcNAc
# Outline: as §1
# [17] = target: Neu5Ac(a2-3)Gal(b1-3)GlcNAc(b1-3)Gal(b1-3)GlcNAc
# Outline: as §1
# [18] = target: Neu5Ac(a2-3)Gal(b1-3)GlcNAc(b1-3)Gal(b1-4)GlcNAc
# Outline: as §1
# [19] = target: Neu5Ac(a2-3)Gal(b1-3)GlcNAc(b1-3)GalNAc
# Outline: as §1
# [20] = target: Neu5Ac(a2-3)Gal(b1-3)GlcNAc(b1-6)GalNAc
# Outline: as §1
# [21] = target: Neu5Ac(a2-3)Gal(b1-3)GlcNAc6S
# Outline: as §1
# [22] = target: Neu5Ac(a2-3)Gal(b1-3)[Fuc(a1-4)]GlcNAc
# Outline: as §1
# [23] = target: Neu5Ac(a2-3)Gal(b1-3)[Fuc(a1-4)]GlcNAc(b1-3)Gal(b1-3)[Fuc(a1-4)]GlcNAc
# Outline: as §1
# [24] = target: Neu5Ac(a2-3)Gal(b1-3)[Fuc(a1-4)]GlcNAc(b1-3)Gal(b1-4)[Fuc(a1-3)]GlcNAc
# Outline: as §1
# [25] = target: Neu5Ac(a2-3)Gal(b1-3)[GlcNAc(b1-6)]GalNAc
# Outline: as §1
# [26] = target: Neu5Ac(a2-3)Gal(b1-3)[Neu5Ac(a2-6)]GalNAc
# Outline: as §1
# [27] = target: Neu5Ac(a2-3)Gal(b1-3)[Neu5Ac(a2-6)]GlcNAc(b1-3)[Fuc(a1-3)[Gal(b1-4)]GlcNAc(b1-6)]Gal(b1-4)Glc
# Outline: as §1
# [28] = target: Neu5Ac(a2-3)Gal(b1-3)]Neu5Ac(a2-3)Gal(b1-4)]GlcNAc
# Outline: as §1
# Neu5Ac(a2-3)Gal(b1-4)Glc = target: Neu5Ac(a2-3)Gal(b1-4)Glc
# Outline: as §1
# [29] = target: Neu5Ac(a2-3)Gal(b1-4)GlcNAc
# Outline: as §1
# [30] = target: Neu5Ac(a2-3)Gal(b1-4)GlcNAc(b1-2)Man
# Outline: as §1
# [31] = target: Neu5Ac(a2-3)Gal(b1-4)GlcNAc(b1-2)Man(a1-3)[GlcNAc(b1-4)][Neu5Ac(a2-3)Gal(b1-4)GlcNAc(b1-2)Man(a1-6)]Man(b1-4)GlcNAc(b1-4)GlcNAc
# Outline: as §1
# [32] = target: Neu5Ac(a2-3)Gal(b1-4)GlcNAc(b1-2)Man(a1-3)[Neu5Ac(a2-3)Gal(b1-4)GlcNAc(b1-2)Man(a1-6)]Man(b1-4)GlcNAc(b1-4)GlcNAc
# Outline: as §1
# [33] = target: Neu5Ac(a2-3)Gal(b1-4)GlcNAc(b1-2)Man(a1-3)[Neu5Ac(a2-3)Gal(b1-4)GlcNAc(b1-2)Man(a1-6)]Man(b1-4)GlcNAc(b1-4)[Fuc(a1-6)]GlcNAc
# Outline: as §1
binder,measurement,setting,value
Epa19 (Candida glabrata) (protein) MGSSHHHHHHSSGLVPRGSHMASSKDPTRFPIGCSPQVLKTQPGLAVKLYSYGHPVPGCSYITYQYPDFPRSGYKKERKLADITGVNGKIDIDLKPNDPCRVLTGHLPSNYNYPDTLTYTNFTMILYGYFQPKVTGYHTFNLEADDLLFMNLGAGNAFDCCKAESTLDNFGNYQSYSLWGSDYAKANITVFLVSGVYYPIRLFYVNRDNNAVIDFSFTTEFDKEKVHDFTSYFFSASDGEQCPGSV,glycan array binding signal (z-score),[1],-0.076
same,glycan array binding signal (z-score),[2],-0.294
same,glycan array binding signal (z-score),[3],-0.339
same,glycan array binding signal (z-score),[4],-0.163
same,glycan array binding signal (z-score),[5],1.25
same,glycan array binding signal (z-score),Man(a1-6)Man,0.479
same,glycan array binding signal (z-score),Man(b1-4)GlcNAc,0.055
same,glycan array binding signal (z-score),MurNAc(b1-4)GlcNAc,-0.114
same,glycan array binding signal (z-score),Neu5Ac(a2-3)Gal,-0.796
same,glycan array binding signal (z-score),[6],0.466
same,glycan array binding signal (z-score),[7],-0.268
same,glycan array binding signal (z-score),[8],-0.349
same,glycan array binding signal (z-score),[9],-0.086
same,glycan array binding signal (z-score),[10],-0.7
same,glycan array binding signal (z-score),[11],-0.152
same,glycan array binding signal (z-score),[12],-0.364
same,glycan array binding signal (z-score),[13],-1.47
same,glycan array binding signal (z-score),[14],0.855
same,glycan array binding signal (z-score),[15],-0.079
same,glycan array binding signal (z-score),[16],1.93
same,glycan array binding signal (z-score),[17],-1.34
same,glycan array binding signal (z-score),[18],-0.793
same,glycan array binding signal (z-score),[19],-0.142
same,glycan array binding signal (z-score),[20],0.104
same,glycan array binding signal (z-score),[21],0.548
same,glycan array binding signal (z-score),[22],-0.017
same,glycan array binding signal (z-score),[23],-0.524
same,glycan array binding signal (z-score),[24],0.414
same,glycan array binding signal (z-score),[25],-0.681
same,glycan array binding signal (z-score),[26],-0.021
same,glycan array binding signal (z-score),[27],-0.06
same,glycan array binding signal (z-score),[28],1.09
same,glycan array binding signal (z-score),Neu5Ac(a2-3)Gal(b1-4)Glc,0.954
same,glycan array binding signal (z-score),[29],-0.276
same,glycan array binding signal (z-score),[30],1.93
same,glycan array binding signal (z-score),[31],-0.125
same,glycan array binding signal (z-score),[32],-0.563
same,glycan array binding signal (z-score),[33],-0.489

# Some of the entries so far, with bars between the fields:
binder | measurement | setting | value
Epa19 (Candida glabrata) (protein) MGSSHHHHHHSSGLVPRGSHMASSKDPTRFPIGCSPQVLKTQPGLAVKLYSYGHPVPGCSYITYQYPDFPRSGYKKERKLADITGVNGKIDIDLKPNDPCRVLTGHLPSNYNYPDTLTYTNFTMILYGYFQPKVTGYHTFNLEADDLLFMNLGAGNAFDCCKAESTLDNFGNYQSYSLWGSDYAKANITVFLVSGVYYPIRLFYVNRDNNAVIDFSFTTEFDKEKVHDFTSYFFSASDGEQCPGSV | glycan array binding signal (z-score) | [17] | -1.34
same | glycan array binding signal (z-score) | [18] | -0.793
same | glycan array binding signal (z-score) | [19] | -0.142
same | glycan array binding signal (z-score) | [20] | 0.104
same | glycan array binding signal (z-score) | [21] | 0.548
same | glycan array binding signal (z-score) | [22] | -0.017
same | glycan array binding signal (z-score) | [23] | -0.524
